According to PubChem BioAssay AID2551 (National Center for Advancing Translational Sciences (NCATS), 2010):
Among all 310,000 compounds or so, about 17,000 (5.5%) were called active. Inconclusive results, whose numbers are uncertain, are shown with a selection of clear calls. The call rests on the fitted dose curve; in most records, active means well fitted inhibition curve with a large enough effect; inconclusive means small, poorly fitted or top-dose-only effect, or effect the other way; inactive means no such curve, though single readings can be large or run the other way. A potency beside an inconclusive call is a rough fit, not a confirmed value.

The chains behind the UniProt entries cited, without tags or fusion partners. Where a name states a change or a piece, a line headed by the entry shows the natural chain unless it says otherwise.
UniProt P51450: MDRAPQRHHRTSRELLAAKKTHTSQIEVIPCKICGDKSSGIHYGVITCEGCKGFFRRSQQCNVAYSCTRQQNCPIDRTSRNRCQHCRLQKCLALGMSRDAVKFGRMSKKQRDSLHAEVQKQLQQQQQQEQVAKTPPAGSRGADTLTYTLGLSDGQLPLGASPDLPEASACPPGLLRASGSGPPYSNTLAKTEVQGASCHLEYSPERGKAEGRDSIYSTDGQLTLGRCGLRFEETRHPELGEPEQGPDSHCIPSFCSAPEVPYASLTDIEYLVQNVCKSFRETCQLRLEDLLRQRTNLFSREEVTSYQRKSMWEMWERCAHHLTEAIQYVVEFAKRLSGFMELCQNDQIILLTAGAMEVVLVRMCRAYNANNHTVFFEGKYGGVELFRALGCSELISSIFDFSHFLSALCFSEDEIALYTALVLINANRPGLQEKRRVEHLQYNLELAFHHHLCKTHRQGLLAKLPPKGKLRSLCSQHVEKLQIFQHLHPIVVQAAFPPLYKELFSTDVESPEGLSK

Target: Nuclear receptor ROR-gamma (Mus musculus) (UniProt P51450)
Test: qHTS for inhibitors of ROR gamma transcriptional activity; further: nearly all actives have a fitted effect of over 60% in size
Conditions: Drosophila S2 Gal4-RORgamma UAS-luciferase reporter, 20 h; activity change, negative = inhibition: at 53.6 µM (top of the series)
Method in brief: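 Schneider cells (Drosophila), stable Gal4 DBD–ROR gamma + UAS-luc; 1 hr cmpd preincubation; Cu2+ induction 700 uM final; 20 hr ambient; luminescence.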
On the % scale 0 is the no-effect control and ±100 the full control effect; potency means the concentration at half of the fitted maximal effect.

| Compound | Potency | activity change, negative = inhibition |
| --- | --- | --- |
| CCCC(C(=O)Nc1nccs1)c1ccccc1 (centres undefined) | inconclusive: 15.8 µM [inhibitor, single point] | – |
| COc1ccccc1Oc1ccc(-c2cnc3ccccc3n2)cc1[N+](=O)[O-] | inconclusive: 14.1 µM [activator, partial curve] | – |
| COc1ccc(/C=N/NC(=O)c2cccc(Br)c2)cc1CSc1ccccn1 | inconclusive: 22.4 µM [inhibitor, single point] | – |
| Cc1ccc(C(=O)Nc2cc(C(C)C)c(O)c(C(C)C)c2)cc1 | – | inactive: 31.7% |
| Cc1c(CC(=O)NCC(C)C)c(=O)oc2cc3c(cc12)CCC(C)(C)O3 | inconclusive: 35.5 µM [inhibitor, single point] | – |
| O=C(CSc1n[nH]c(-c2ccco2)n1)Nc1sc2c(c1C(=O)Nc1ccccc1)CCCC2 | inconclusive: 3.16 µM [inhibitor, partial curve, poor fit] | – |
| Nc1ccccc1C(=O)CC(N)C(=O)O (centres undefined) | active: 12.6 µM | – |
| CCn1ncc(CN2CCN(C(=O)Nc3ccccc3C(=O)OC)CC2)c1C | inconclusive: 0.708 µM [activator, full curve, poor fit] | – |
| CN(C)S(=O)(=O)c1cccc(NC(=O)c2ccc(OC(F)(F)F)cc2)c1 | inconclusive: 35.5 µM [activator, single point] | – |
| Cc1ccc(/C=C2\SC(=S)N(CCCC(=O)Nc3ccc(O)cc3)C2=O)cc1 | active: 0.0501 µM | – |
| COc1ccc(N2CCN(C(=O)c3ccc(CNS(=O)(=O)c4cccc(OC)c4)cc3)CC2)cc1 | inconclusive: 35.5 µM [activator, single point] | – |
| Cc1ccc(NC(=O)CC(=O)c2ccc([N+](=O)[O-])cc2)cc1S(=O)(=O)Nc1cccc(Cl)c1 | inconclusive: 35.5 µM [inhibitor, single point] | – |
| O=C(CN1C(=O)S/C(=C\c2ccc(Cl)cc2)C1=O)NNC(=O)c1ccccc1O | – | inactive: -4.99% [at 10 µM] |
| Cc1ccc2nc(NC(=O)COC(=O)c3ccco3)sc2c1 | inconclusive: 35.5 µM [inhibitor, single point] | – |
| Cc1onc(-c2c(Cl)cccc2Cl)c1C(=O)ONC(=O)c1ccccc1 | – | inactive: -1.65% |
| CC(C)(C)NC(=O)CN(CCN1CCOCC1)C(=O)CNS(=O)(=O)c1ccccc1 | – | inactive: -40.7% |
| Cc1cc(C)cc(NC(=S)Nc2ccc(Cl)c(Cl)c2)c1 | active: 10 µM | – |
| NC(=O)c1ccccc1NC(=O)Nc1ccc(F)c(Cl)c1 | – | inactive: -3.66% |
| CCOc1ccccc1NC(=S)N1C2CCC1CC(NC(=O)NC13CC4CC(CC(C4)C1)C3)C2 (centres undefined) | inconclusive: 20 µM [inhibitor, single point] | – |
| Cc1cc(C=O)c(C)n1-c1ccc(N2CCOCC2)c([N+](=O)[O-])c1 | – | inactive: -23.3% |
| CCOC(=O)CC(=O)CSc1nc2sc(C)cc2c(=O)n1Cc1ccco1 | inconclusive: 15.8 µM [inhibitor, single point] | – |
| COc1cc(OC)cc(-c2cc3nc(C)c(CCC(=O)NCc4ccccc4)c(C)n3n2)c1 | inconclusive: 2.82 µM [inhibitor, full curve, poor fit] | – |

Three entries from above, ordered by SMILES length, low to high.

| Compound | Potency | activity change, negative = inhibition |
| --- | --- | --- |
| Nc1ccccc1C(=O)CC(N)C(=O)O (centres undefined) | active: 12.6 µM | – |
| Cc1cc(C)cc(NC(=S)Nc2ccc(Cl)c(Cl)c2)c1 | active: 10 µM | – |
| COc1ccc(N2CCN(C(=O)c3ccc(CNS(=O)(=O)c4cccc(OC)c4)cc3)CC2)cc1 | inconclusive: 35.5 µM [activator, single point] | – |

Further results follow.

| Compound | Potency | activity change, negative = inhibition |
| --- | --- | --- |
| COCc1cc(C)nc2sc(C(=O)Nc3ccccc3OC)c(N)c12 | inconclusive: 35.5 µM [activator, single point] | – |
| Cc1ccc(-c2cnn(-c3ccccc3)c2N)cc1 | inconclusive: 17.8 µM [inhibitor, single point] | – |
| O=C(/C=C/c1cccc(C(F)(F)F)c1)Nc1cccc(C(F)(F)F)c1 | inconclusive: 25.1 µM [inhibitor, single point] | – |
| COc1ccc(-c2csc(Nc3ccc(O)cc3)n2)cc1 | inconclusive: 35.5 µM [inhibitor, single point] | – |
| CS(=O)(=O)N(CC(=O)NCc1ccccn1)c1ccc2c(c1)OCCO2 | inconclusive: 11.2 µM [activator, single point] | – |
| CCOC(=O)N1CCN(C(=O)c2cc(COc3ccc(OC)cc3Cl)on2)CC1 | inconclusive: 11.2 µM [activator, partial curve] | – |
| O=C(/C=C/c1ccccc1Cl)Nc1ccc(Cl)cn1 | inconclusive: 5.62 µM [inhibitor, single point] | – |
| COc1ccccc1-n1cnc2sc(-c3ccccc3)cc2c1=O | inconclusive: 20 µM [activator, single point] | – |
| Cc1cc(C)c(S(=O)(=O)Nc2cccc(C(F)(F)F)c2)c(C)c1 | inconclusive: 14.1 µM [inhibitor, partial curve] | – |
| CCc1ccc(-c2ccc3nnc(SCC(N)=O)n3n2)cc1 | inconclusive: 22.4 µM [inhibitor, single point] | – |
| CC(C)(C)OC(=O)CNC(=O)c1nc[nH]c1C(=O)N1CCN(c2ccccc2)CC1 | active: 12.6 µM | – |
| CC(C)c1ccc2[nH]c3c(c2c1)[C@@H]1CCN2C(=O)CCC[C@H](C3)[C@H]12 | inconclusive: 15.8 µM [activator, partial curve] | – |
| O=C(NCCc1ccccc1)C(=O)c1c[nH]c2ccccc12 | inconclusive: 35.5 µM [activator, partial curve, poor fit] | – |
| CC(OC(=O)c1ccc2c(=O)n3c(nc2c1)CCCCC3)C(=O)Nc1ccc(Cl)cn1 (centres undefined) | inconclusive: 22.4 µM [activator, single point] | – |
| Cc1[nH]c2ccc3c(ncn3CCC#N)c2c1C | – | inactive: -1.19% |
| O=C1C(=O)N(Cc2cccnc2)C(c2ccccn2)/C1=C(/O)c1ccccc1 (centres undefined) | active: 0.447 µM | – |
| Cc1noc(C)c1COc1ccc(CC(=O)NC2CCCCCC2)cc1 | – | inactive: 12.4% |
| CCNC(=O)c1nc[nH]c1C(=O)NCC | inconclusive: 0.1 µM [inhibitor, single point] | – |
| CCN1C(=O)/C(=C2/C=Cc3ccccc3N2CC)SC1=S | – | inactive: 1.16% |
| CC(=O)NCCn1c(SCC#N)nc2ccccc2c1=O | active: 0.224 µM | – |
| Cn1ccnc1SCC(=O)c1cccc(C(F)(F)F)c1 | inconclusive: 31.6 µM [inhibitor, single point] | – |
| O=C1NC(=O)[C@@H]2C3c4ccccc4C=CN3[C@H](C(=O)c3cccs3)[C@H]12 (some centres undefined) | inconclusive: 5.62 µM [inhibitor, single point] | – |
